Results deposited as PubChem BioAssay AID1259308 (NCATS, 2017)

Purpose: 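Knock-downs that increase output of a recombinant reporter protein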 (primary screen)
System: human HEK293 embryonic kidney cells stably expressing firefly luciferase (HEK-CMV-Luc2-Hygro)
Knock-down reagent: single siRNA against human genes, 0.8 pmol siRNA per well
Timing: 72 h
Read-out: 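Luciferase light (ONE-Glo) measured on one replicate plate set and viability (CellTiter-Glo) on the other, scaled to a negative control siRNA, with robust z-scores and luciferase per cell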
Reading the numbers: total luciferase, z-score: higher = more reporter protein produced
Active means: 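Active when the median/MAD z-score for overall luciferase is greater than 3; a gene was taken forward for validation with new siRNAs if at least two of its three siRNAs passed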
Calls: active = raised luciferase; inactive = no rise
The deposit covers about 59,000 reagents; this is an unselected part. About 1,510 of all reagents (2.6%) were called active. 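Calls use total luciferase alone and ignore viability, so some active siRNAs may act by altering cell number.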 Not all columns of the deposit are shown. Reagent sequences are not shown.

For SCAND3 [SID160755037], what was measured?
total luciferase, z-score: -0.613; outcome: inactive

What did the screen give for SCAND3 [SID160755038]?
total luciferase, z-score: 0.744; outcome: inactive

What did the screen give for SCAND3 [SID160755039]?
total luciferase, z-score: -0.405; outcome: inactive

With EPGN [SID160762307], what does the deposit list?
total luciferase, z-score: 0.268; outcome: inactive

Which result is listed for EPGN [SID160762308]?
total luciferase, z-score: 0.863; outcome: inactive

Which result is listed for EPGN [SID160762310]?
total luciferase, z-score: -1.13; outcome: inactive

What is on record for TNFRSF25 [SID160724187]?
total luciferase, z-score: -0.187; outcome: inactive

With TNFRSF25 [SID160727863], what was measured?
total luciferase, z-score: 0.907; outcome: inactive

How did the screen score TNFRSF25 [SID160727864]?
total luciferase, z-score: -0.0744; outcome: inactive

With SELENOP [SID160716572], what was measured?
total luciferase, z-score: -0.17; outcome: inactive

For SELENOP [SID160716573], how do the results read?
total luciferase, z-score: -0.0719; outcome: inactive

What is on record for SELENOP [SID160716576]?
total luciferase, z-score: 1.47; outcome: inactive

With WDR82 [SID160750414], how do the results read?
total luciferase, z-score: 2.39; outcome: inactive

What is on record for WDR82 [SID160750415]?
total luciferase, z-score: -0.39; outcome: inactive

For WDR82 [SID160750416], how do the results read?
total luciferase, z-score: 0.0126; outcome: inactive

What did the screen give for PKD1L3 [SID160764608]?
total luciferase, z-score: -0.249; outcome: inactive

With PKD1L3 [SID160764609], what does the deposit list?
total luciferase, z-score: 0.378; outcome: inactive

With PKD1L3 [SID160764610], what does the deposit list?
total luciferase, z-score: -0.579; outcome: inactive

What is on record for MPC2 [SID160732840]?
total luciferase, z-score: 0.98; outcome: inactive

What is on record for MPC2 [SID160737154]?
total luciferase, z-score: 0.0752; outcome: inactive

Which result is listed for MPC2 [SID160737155]?
total luciferase, z-score: 0.0269; outcome: inactive

Part of the list above, reformatted:
Gene | PubChem SID | total luciferase, z-score | outcome
EPGN | SID160762307 | 0.268 | inactive
EPGN | SID160762308 | 0.863 | inactive
EPGN | SID160762310 | -1.13 | inactive
